Reference: patent publication US20210371522A1
No constants are given. Whether binding was seen depends on the method and setting. Some results given as binding are weak or reduced against the parent protein; the word gives no strength.

Sequences of proteins named here, by UniProt entry; tags and fusion partners are left off. Residues count along the entry.
UniProt P07996, residues 19-1170: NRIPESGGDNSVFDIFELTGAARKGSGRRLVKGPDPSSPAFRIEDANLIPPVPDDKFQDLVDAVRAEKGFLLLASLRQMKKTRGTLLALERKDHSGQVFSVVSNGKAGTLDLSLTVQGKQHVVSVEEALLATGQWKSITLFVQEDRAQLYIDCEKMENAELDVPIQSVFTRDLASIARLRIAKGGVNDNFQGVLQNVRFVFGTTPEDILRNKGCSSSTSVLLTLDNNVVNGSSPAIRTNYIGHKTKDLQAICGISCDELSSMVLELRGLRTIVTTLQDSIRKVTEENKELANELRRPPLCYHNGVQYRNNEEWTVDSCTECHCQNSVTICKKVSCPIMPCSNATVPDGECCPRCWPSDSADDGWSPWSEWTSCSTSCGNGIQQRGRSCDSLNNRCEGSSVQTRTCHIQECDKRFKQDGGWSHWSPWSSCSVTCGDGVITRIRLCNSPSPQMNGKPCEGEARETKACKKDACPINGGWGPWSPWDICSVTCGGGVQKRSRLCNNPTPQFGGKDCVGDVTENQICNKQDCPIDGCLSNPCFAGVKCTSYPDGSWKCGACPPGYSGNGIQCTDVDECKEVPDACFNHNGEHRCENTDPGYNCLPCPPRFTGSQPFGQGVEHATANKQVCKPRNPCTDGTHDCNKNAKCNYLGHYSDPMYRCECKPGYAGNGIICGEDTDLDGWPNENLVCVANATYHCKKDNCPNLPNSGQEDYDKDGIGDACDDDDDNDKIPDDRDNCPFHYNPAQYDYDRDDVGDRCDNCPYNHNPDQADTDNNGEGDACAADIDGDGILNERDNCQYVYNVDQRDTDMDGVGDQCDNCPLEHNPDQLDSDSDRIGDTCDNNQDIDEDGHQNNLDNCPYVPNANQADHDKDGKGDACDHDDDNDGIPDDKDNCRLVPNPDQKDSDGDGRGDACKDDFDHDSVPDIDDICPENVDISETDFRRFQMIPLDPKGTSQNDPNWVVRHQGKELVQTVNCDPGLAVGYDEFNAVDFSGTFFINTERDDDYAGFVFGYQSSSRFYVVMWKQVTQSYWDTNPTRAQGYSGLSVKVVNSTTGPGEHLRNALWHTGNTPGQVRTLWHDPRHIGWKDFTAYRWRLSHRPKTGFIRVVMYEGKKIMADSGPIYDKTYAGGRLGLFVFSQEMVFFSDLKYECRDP
UniProt Q08722, residues 19-141: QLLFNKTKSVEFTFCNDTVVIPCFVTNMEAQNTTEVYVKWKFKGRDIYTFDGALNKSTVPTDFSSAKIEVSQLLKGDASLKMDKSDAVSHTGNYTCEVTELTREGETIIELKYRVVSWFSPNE

Target: recombinant thrombospondin-1 (TSP-1) (UniProt P07996)
Test: SPR (Biacore)

recombinant CD47 extracellular domain (ECD) (from UniProt Q08722 19-141) (receptor)
binding: binds
